Test results taken from PubChem BioAssay AID504834 (National Center for Advancing Translational Sciences (NCATS), 2011).
Where “and” joins values, the source holds several entries; their conditions need not be identical. Equal values may be shown once. Among all 320,000 compounds or so, about 22,000 (6.9%) were called active. Inconclusive means that the source gave no clear call. Such entries were picked first, then a sample of the others. Calls follow the shape of the dose curve; as a rule, active = well fitted inhibition curve with a large enough effect; inconclusive = small, poorly fitted or top-dose-only effect, or another doubt; inactive = no such curve, though single readings can be large or run the other way. Potencies of inconclusive entries are doubtful fits and often do not repeat.
% is scaled to controls: 0 for no effect and ±100 for the full control effect; potency is read from the fitted curve at half-maximal effect.

Assay: Primary qHTS for delayed death inhibitors of the malarial parasite plastid, 96 hour incubation
Details: P. falciparum luciferase reporter growth; series mostly up to 28.7 µM; activity change, negative = inhibition: at the top concentration
Summary of the method: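 Two parasite generations (96 h, 37 C, 5% CO2) of compound exposure in infected erythrocytes (0.05% parasitemia, 2% hematocrit). Luciferase-reporter P. falciparum; decreased luminescence indicates inhibited growth, aimed at apicoplast-acting delayed death.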
With `O=[N+]([O-])c1ccccc1S(=O)(=O)Nc1cccnc1` the “activity change, negative = inhibition” value was inactive: 0%.
With `CCC(=O)Nc1nc2c(c(=O)[nH]1)CCCC2` the Potency was inconclusive: 0.329 µM [inhibitor, partial curve, poor fit].
For `Cc1ccc(C)n1-c1ccc(C(=O)NCc2ccncc2)cc1`, the Potency was inconclusive: 10.4 µM [inhibitor, partial curve, poor fit].
In the case of `CC(NC(=O)c1cccc(F)c1)C(c1cccs1)N1CCN(C)CC1` (configuration not stated), the Potency is reported as inconclusive: 4.15 µM [inhibitor, partial curve].
In the case of `CC[N+]1(C)CCCC(OC(=O)C(O)(c2ccccc2)c2ccccc2)C1` (configuration not stated), the Potency is reported as active: 8.49 µM and active: 10.4 µM.
With `COc1ccc(Cl)cc1NC(=O)CN(C)C(=O)c1ccc(N2CCCCC2)c([N+](=O)[O-])c1` the Potency was inconclusive: 18.5 µM [inhibitor, single point].
In the case of `CC(O)c1cccc(NC(=O)CCC(=O)O)c1` (configuration not stated), the “activity change, negative = inhibition” value is reported as inactive: 25%.
For `CC1CCN(S(=O)(=O)c2cccc(C(=O)Oc3ccc([N+](=O)[O-])cc3)c2)CC1`, the Potency was inconclusive: 9.28 µM [inhibitor, partial curve, poor fit].
In the case of `CCOC(=O)c1ccc(NC(=O)COc2ccccc2CNCCO)cc1`, the Potency is reported as inconclusive: 0.928 µM [inhibitor, partial curve, poor fit].
In the case of `COc1ccccc1CNC(=O)CCS(=O)(=O)c1ccc2c(c1)CC(C)N2C(=O)C1CC1` (configuration not stated), the “activity change, negative = inhibition” value is reported as inactive: 31%.
For `O=C(NCCc1c[nH]c2ccccc12)C(F)(F)C(F)F`, the Potency was inconclusive: 18.5 µM [inhibitor, single point].
For `CCCc1ccccc1OCCNC(C)=O`, the Potency was active: 8.28 µM.
With `CC(C)CCN1CCN(Cc2ccc(C#CCCO)cc2)CC1CCO` (configuration not stated) the Potency was active: 11.7 µM.
In the case of `CCOC(=O)NC1(C(F)(F)F)NC(=O)N(c2cccc(C(F)(F)F)c2)C1=O` (configuration not stated), the Potency is reported as inconclusive: 11.7 µM [inhibitor, single point].
With `C=CC[n+]1c(-c2ccc(Cl)cc2Cl)csc1Nc1c(C)n(C)n(-c2ccccc2)c1=O` the Potency was inconclusive: 13.1 µM [inhibitor, single point].
In the case of `Cc1ccc(-c2nc(CSCC(=O)N3CCN(c4ccccn4)CC3)c(C)o2)cc1`, the Potency is reported as active: 10.4 µM.
For `COCCOCC(O)CN1CCN(c2ccc(C)cc2)CC1` (configuration not stated), the Potency was inconclusive: 13.1 µM [inhibitor, single point].
In the case of `CCC(=O)N(C)CCc1cc2c(c(OC)c1/C=N/NS(=O)(=O)c1ccc(C)cc1)OCO2`, the “activity change, negative = inhibition” value is reported as inactive: 22%.
With `CCCCC(=O)NC(=S)Nc1ccccc1C(=O)Nc1ccccc1` the Potency was inconclusive: 1.31 µM [inhibitor, partial curve, poor fit].
With `CCOC(=O)N/N=C/c1ccc(F)cc1F` the “activity change, negative = inhibition” value was inactive: 105%.
With `O=C(CNS(=O)(=O)c1ccccc1)Nc1cccc([N+](=O)[O-])c1` the Potency was inconclusive: 10.4 µM [inhibitor, single point].
In the case of `O=C(Nc1nnc(SCCN2CCOCC2)s1)C1CC(=O)N(c2ccc(F)cc2)C1` (configuration not stated), the Potency is reported as inconclusive: 10.4 µM [inhibitor, single point].
For `CCOc1ccccc1OCCN1CCC(Cc2ccccc2)CC1`, the Potency was inconclusive: 18.5 µM [inhibitor, single point].
For `CCc1ccc(NC(=O)CSc2nnc(COc3ccc4c(c3)CCCC4)o2)cc1`, the Potency was inconclusive: 20.8 µM [inhibitor, partial curve, poor fit].
With `CC1CCN(CCCNC(=O)c2ccc(Cn3c(=S)[nH]c4ccc(Br)cc4c3=O)cc2)CC1` the “activity change, negative = inhibition” value was inactive: 15.9%.
For `COc1ccc(S(=O)(=O)CCC(=O)N2CCN(c3ccc(F)cc3)CC2)cc1`, the Potency was inconclusive: 0.465 µM [inhibitor, partial curve, poor fit].
In the case of `COc1cccc(-c2nc(NC(C)(C)C)c3ccccc3n2)c1O`, the Potency is reported as inconclusive: 18.5 µM [inhibitor, single point].
In the case of `O=C(CN1CCN(S(=O)(=O)c2ccc(Cl)cc2)CC1)NCC1(N2CCOCC2)CCCCC1`, the Potency is reported as inconclusive: 14.7 µM [inhibitor, partial curve, poor fit].
For `COc1ccc(S(=O)(=O)NCC(=O)Nc2ccc(F)cc2)cc1`, the Potency was inconclusive: 10.4 µM [inhibitor, single point].
For `CC(/C=N/NC(=O)CNc1n[nH]c(=O)[nH]c1=O)c1ccccc1` (configuration not stated), the “activity change, negative = inhibition” value was inactive: 70%.
In the case of `COc1cccc(/C=C/C(=O)OCC(=O)Nc2ccc(Cl)c(S(=O)(=O)N(C)C)c2)c1OC`, the Potency is reported as inconclusive: 7.38 µM [inhibitor, partial curve, poor fit].
For `Cc1ccc(C(=O)OCc2cn(-c3ccccc3)nn2)cc1`, the Potency was inconclusive: 20.8 µM [inhibitor, partial curve, poor fit].
With `CCNc1nc(SC(C)C(=O)Nc2ccccc2)nc(N2CCOCC2)n1` (configuration not stated) the Potency was inconclusive: 13.1 µM [inhibitor, partial curve].
In the case of `O=C(O)CCn1c(SCCOc2ccccc2F)nc2ccccc21`, the Potency is reported as active: 10.4 µM.
With `CN1CCN(S(=O)(=O)c2ccc3c(c2)NC(=O)CS3)CC1` the Potency was inconclusive: 18.5 µM [inhibitor, single point].
In the case of `COn1c(SCC(=O)N(C)C)nc2ccccc2c1=O`, the Potency is reported as inconclusive: 13.1 µM [inhibitor, partial curve, poor fit].
In the case of `COCCN(CCOC)C(=O)c1cc2sc3ccccc3c2s1`, the Potency is reported as inconclusive: 10.4 µM [inhibitor, partial curve, poor fit].
In the case of `C=CCNC(=S)Nc1sc2c(c1C#N)CCCC2`, the Potency is reported as inconclusive: 9.28 µM [inhibitor, partial curve, poor fit].
In the case of `O=S(=O)(Nc1cc(C(F)(F)F)ccc1N1CCOCC1)c1ccccc1`, the Potency is reported as inconclusive: 2.94 µM [inhibitor, partial curve].
With `COc1ccccc1S(=O)Cc1ccc(C(=O)NC2CCCC2)o1` (configuration not stated) the Potency was inconclusive: 3.29 µM [inhibitor, partial curve, poor fit].
For `Cc1cccc(NC(=S)N/N=C/c2ccc([N+](=O)[O-])s2)c1`, the Potency was inconclusive: 1.65 µM [inhibitor, full curve].
With `CCC(C(=O)NCc1ccccc1OC)c1ccccc1` (configuration not stated) the Potency was inconclusive: 10.4 µM [inhibitor, partial curve, poor fit].
In the case of `Cc1[nH]c2ccccc2c1C(=O)CSC(=S)N1CCN(C)CC1`, the Potency is reported as inconclusive: 11.7 µM [inhibitor, single point].
For `Nc1nc(SCC(=O)Nc2ccc(S(N)(=O)=O)cc2)n[nH]1`, the Potency was inconclusive: 18.5 µM [inhibitor, single point].
For `CCCCn1c(SCC(=O)N(CC)C2CCS(=O)(=O)C2)nnc1C(CC)N(C)C` (configuration not stated), the “activity change, negative = inhibition” value was inactive: 8.9%.
For `CCCc1cc(=O)oc2cc(C)cc(OCC(=O)Nc3ccccn3)c12`, the Potency was active: 0.657 µM.
With `Cc1ccc2[nH]c(C(=O)NN=C3CCCCC3)c(-c3ccccc3)c2c1` the Potency was active: 9.28 µM.
For `Cc1nc(SCC(=O)c2ccc(F)c(F)c2)[nH]c(=O)c1Oc1ccc(Cl)cc1`, the Potency was inconclusive: 4.65 µM [inhibitor, partial curve, poor fit].
With `CC(C(=O)Nc1ccc(O)cc1C(=O)O)N1C(=O)/C(=C\c2cccs2)SC1=S` (configuration not stated) the Potency was inconclusive: 16.5 µM [inhibitor, single point].
In the case of `C/C(=N\NC(=S)Nc1cccc(C)c1)c1cc2ccccc2o1`, the Potency is reported as active: 8.28 µM.
With `CC(C)C[C@]1(c2ccccc2)ON(c2ccccc2C(F)(F)F)C1=O` the Potency was inconclusive: 13.1 µM [inhibitor, single point].
With `CCOC(=O)CSC1=C(C#N)C(c2ccccc2Cl)C(C(=O)OC)C(=O)N1` (configuration not stated) the Potency was inconclusive: 18.5 µM [inhibitor, single point].
In the case of `O=C(NCCN1C(=O)S/C(=C\c2cccs2)C1=O)c1ccco1`, the Potency is reported as inconclusive: 18.5 µM [inhibitor, single point].
For `Cc1ccc(N2CC(C(=O)N3CCC4(CC3)CC(=O)c3ccccc3O4)CC2=O)cc1` (configuration not stated), the Potency was inconclusive: 11.7 µM [inhibitor, single point].
For `COc1ccc(/C=N/N2C(C)CCCC2C)cc1OC` (configuration not stated), the “activity change, negative = inhibition” value was inactive: 18.7%.
In the case of `Cc1nn(C)cc1S(=O)(=O)Nc1ncccn1`, the Potency is reported as inconclusive: 4.65 µM [inhibitor, partial curve].
With `COc1cccc(CN(CC2CCCO2)S(=O)(=O)c2ccc(S(=O)(=O)NCC3CCCO3)cc2)c1OC` (configuration not stated) the Potency was inconclusive: 11.7 µM [inhibitor, partial curve, poor fit].
With `COc1ccc(NC(=O)N2CCN(C(=O)c3ccco3)CC2)c(OC)c1` the Potency was inconclusive: 18.5 µM [inhibitor, single point].
With `CCn1cc(C(C)NC(=O)Nc2ccccc2C(=O)OC)c(C)n1` (configuration not stated) the “activity change, negative = inhibition” value was inactive: 17.9%.
For `Cc1ccc([N+](=O)[O-])c(NC2OC(CO)C(O)C2O)c1` (configuration not stated), the Potency was active: 5.22 µM.
With `CCOC(=O)C1(Cc2cccc(OC)c2)CCN(Cc2cc(OC)ccc2OC)CC1` the Potency was active: 10.4 µM.
For `Cc1ccc2oc3c(c(=O)c2c1)C(c1ccc(F)cc1)N(CCCN1CCOCC1)C3=O` (configuration not stated), the Potency was inconclusive: 5.22 µM [inhibitor, partial curve].
For `Cc1onc(-c2ccccc2)c1C(=O)Nc1nc(-c2ccc(F)c(F)c2)cs1`, the “activity change, negative = inhibition” value was inactive: -17.9%.
In the case of `CC(=NCCC1=CCCCC1)c1c(O)n(C)c(=O)n(C)c1=O`, the Potency is reported as inconclusive: 0.0828 µM [inhibitor, full curve, poor fit].
With `C/C=C(\C)CN1CCC(n2nccc2NC(=O)CCOc2ccccc2)CC1` the “activity change, negative = inhibition” value was inactive: 20.1%.
For `N#Cc1c(NC(=O)C(=O)NCCCN2CCOCC2)sc2c1CCC2`, the Potency was inconclusive: 20.8 µM [inhibitor, single point].
In the case of `Cc1nonc1N1CCN(Cc2cn[nH]c2-c2ccc(F)cc2F)CC1`, the Potency is reported as inconclusive: 18.5 µM [inhibitor, single point].
